Laboratory results as given in patent US20170303574A1, “COMPOUNDS, COMPOSITIONS, AND METHODS FOR MODULATING SWEET TASTE” (Chromocell Corporation, priority 2014, published 2017).

System: perception of sweet taste, in an aqueous solution
Assay: Inherent sweetness assessment using 2AFC method
Assay type: in vivo, humans
Conditions: compound in aqueous solution without sweetener vs 1.5% SE HFCS control; 18-21 panelists
Experimental: The aqueous sweetener solutions were prepared by adding sucrose equivalent quantities of HFCS (by weight), to water to achieve the desired concentration. The aqueous solutions ranged in pH from 2.5-pH 7. Compounds were first prepared as a 500-fold concentrated stock solution in 100% ethanol. These concentrated stocks were then added to the aqueous sweetener solutions to result in a final ethanol concentration of 0.2%. The control (positive and negative) samples were also normalized to 0.2% ethanol. This level of ethanol was not seen to contribute any perceived sweetness The intrinsic effect of test compounds on the perception of sweet taste, in an aqueous solution, in humans was evaluated using 2AFC methodology. This test was a double-blinded, randomized study where taste panelists (n≧20) evaluate a pair of sweetener solutions at a time—one sample contains aqueous solutions, without sweetener, plus compound (i.e. test) while the other contains aqueous solution containing 1.5% sucrose equivalent (SE), HFCS (i.e. control). […] Panelists were instructed not to eat or drink (except water) for at least 1 hour before the test. During the test, panelists were instructed to sip each sample, swirl it around their mouth and then expectorate. After tasting each sample in the pair, panelists were instructed to record the sample that is “sweeter” in taste. Panelists cleansed their palates by rinsing with water, eating a cracker and waiting for an interval of about 5 minutes. Each pair was tasted twice. All samples were tasted at ambient temperatures. Data were analyzed using binomial probabilities

**Q.** `COc1ccc([C@@H]2CCc3ccc(O)c(C)c3O2)cc1O` [Compound 2, (S)-2-(3-hydroxy-4-methoxyphenyl)-8-methylchroman-7-ol] was tested. Which Number picking control did it give?
**A.** The Number picking control was 16.

**Q.** With `COc1ccc(C2CCc3cc(C)c(O)cc3O2)cc1O` (single isomer, unassigned; (-)) [Compound 5, (−)-2-(3-hydroxy-4-methoxyphenyl)-6-methylchroman-7-ol] as the compound, how does the Number picking control read?
**A.** Its Number picking control is 13.

**Q.** How did the Number picking control turn out when `COc1ccc(C2CCc3cc(C)c(O)cc3O2)cc1O` (racemic) [Compound 4, 2-(3-hydroxy-4-methoxyphenyl)-6-methylchroman-7-ol] was run?
**A.** The Number picking control was 16.

**Q.** With `COc1ccc(C2CCc3ccc(O)c(C)c3O2)cc1O` (racemic) [Compound 1, 2-(3-hydroxy-4-methoxyphenyl)-8-methylchroman-7-ol] as the compound, how does the Number picking control read?
**A.** The Number picking control was 15.
